Data on two molecules can be found in PMC2949799.

Amino acid sequences for entries named in this document (tags omitted).
UniProt Q8NHY2: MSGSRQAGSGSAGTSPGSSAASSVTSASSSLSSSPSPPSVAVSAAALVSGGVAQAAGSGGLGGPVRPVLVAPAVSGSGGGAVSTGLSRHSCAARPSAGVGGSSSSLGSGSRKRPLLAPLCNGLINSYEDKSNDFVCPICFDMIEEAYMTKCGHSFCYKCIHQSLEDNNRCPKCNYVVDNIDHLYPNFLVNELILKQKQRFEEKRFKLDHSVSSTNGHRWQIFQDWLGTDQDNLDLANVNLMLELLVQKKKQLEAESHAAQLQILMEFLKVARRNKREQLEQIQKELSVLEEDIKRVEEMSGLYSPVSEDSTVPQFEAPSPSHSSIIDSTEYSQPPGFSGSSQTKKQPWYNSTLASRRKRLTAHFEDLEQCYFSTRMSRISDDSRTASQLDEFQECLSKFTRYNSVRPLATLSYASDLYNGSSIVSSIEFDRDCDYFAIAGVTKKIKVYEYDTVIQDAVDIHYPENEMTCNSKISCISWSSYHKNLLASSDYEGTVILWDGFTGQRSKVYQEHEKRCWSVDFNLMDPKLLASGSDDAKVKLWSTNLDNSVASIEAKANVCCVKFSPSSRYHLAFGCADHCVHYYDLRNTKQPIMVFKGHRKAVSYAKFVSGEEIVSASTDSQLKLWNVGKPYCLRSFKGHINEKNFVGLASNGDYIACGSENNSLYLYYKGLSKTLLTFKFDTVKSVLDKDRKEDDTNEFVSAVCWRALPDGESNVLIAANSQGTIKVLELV

No constants are given. Whether binding was seen depends on the method and setting. Binding seen in cells or lysates may run through a third protein. Some entries that bind do so weakly or less than the wild type. Where a sequence is shown, tags or fusion partners need not be part of it.

This experiment has as its target Myc-COP1 (WT [wild type]) (UniProt Q8NHY2). As to the kind of experiment: co-IP; 293T cells cotransfected with Myc-COP1 (WT or S387A) and Flag-14-3-3σ constructs; lysates immunoprecipitated with anti-Myc, immunoblotted with anti-Flag; proteasome inhibitors before harvesting (Figure 3A). Background: A western blot detects proteins with antibodies after separation by electrophoresis.

B1: C-terminal Flag-14-3-3σ (153-248) (domain or fragment, UniProt P31947 153-248)
chain: EAMDISKKEMPPTNPIRLGLALNFSVFHYEIANSPEEAISLAKTTFDEAMADLHTLSEDSYKDSTLIMQLLRDNLTLWTADNAGEEGGEAPQEPQS
As to B1, the binding result was “no binding”.

B2: N-terminal Flag-14-3-3σ (1-161) (domain or fragment, UniProt P31947 1-161)
chain: MERASLIQKAKLAEQAERYEDMAAFMKGAVEKGEELSCEERNLLSVAYKNVVGGQRAAWRVLSSIEQKSNEEGSEEKGPEVREYREKVETELQGVCDTVLGLLDSHLIKEAGDAESRVFYLKMKGDYYRYLAEVATGDDKKRIIDSARSAYQEAMDISKKE
With B2, the binding entry is “binds”.
